Test results: PMC9044881
Results are given in words; binding and its absence hold for the method and conditions named. In cells and extracts the contact can be indirect. Some binding calls cover weakened binding; strength is not graded here.

Protein sequences, listed by entry. Tags and fused reporters are not part of them.
UniProt O14686: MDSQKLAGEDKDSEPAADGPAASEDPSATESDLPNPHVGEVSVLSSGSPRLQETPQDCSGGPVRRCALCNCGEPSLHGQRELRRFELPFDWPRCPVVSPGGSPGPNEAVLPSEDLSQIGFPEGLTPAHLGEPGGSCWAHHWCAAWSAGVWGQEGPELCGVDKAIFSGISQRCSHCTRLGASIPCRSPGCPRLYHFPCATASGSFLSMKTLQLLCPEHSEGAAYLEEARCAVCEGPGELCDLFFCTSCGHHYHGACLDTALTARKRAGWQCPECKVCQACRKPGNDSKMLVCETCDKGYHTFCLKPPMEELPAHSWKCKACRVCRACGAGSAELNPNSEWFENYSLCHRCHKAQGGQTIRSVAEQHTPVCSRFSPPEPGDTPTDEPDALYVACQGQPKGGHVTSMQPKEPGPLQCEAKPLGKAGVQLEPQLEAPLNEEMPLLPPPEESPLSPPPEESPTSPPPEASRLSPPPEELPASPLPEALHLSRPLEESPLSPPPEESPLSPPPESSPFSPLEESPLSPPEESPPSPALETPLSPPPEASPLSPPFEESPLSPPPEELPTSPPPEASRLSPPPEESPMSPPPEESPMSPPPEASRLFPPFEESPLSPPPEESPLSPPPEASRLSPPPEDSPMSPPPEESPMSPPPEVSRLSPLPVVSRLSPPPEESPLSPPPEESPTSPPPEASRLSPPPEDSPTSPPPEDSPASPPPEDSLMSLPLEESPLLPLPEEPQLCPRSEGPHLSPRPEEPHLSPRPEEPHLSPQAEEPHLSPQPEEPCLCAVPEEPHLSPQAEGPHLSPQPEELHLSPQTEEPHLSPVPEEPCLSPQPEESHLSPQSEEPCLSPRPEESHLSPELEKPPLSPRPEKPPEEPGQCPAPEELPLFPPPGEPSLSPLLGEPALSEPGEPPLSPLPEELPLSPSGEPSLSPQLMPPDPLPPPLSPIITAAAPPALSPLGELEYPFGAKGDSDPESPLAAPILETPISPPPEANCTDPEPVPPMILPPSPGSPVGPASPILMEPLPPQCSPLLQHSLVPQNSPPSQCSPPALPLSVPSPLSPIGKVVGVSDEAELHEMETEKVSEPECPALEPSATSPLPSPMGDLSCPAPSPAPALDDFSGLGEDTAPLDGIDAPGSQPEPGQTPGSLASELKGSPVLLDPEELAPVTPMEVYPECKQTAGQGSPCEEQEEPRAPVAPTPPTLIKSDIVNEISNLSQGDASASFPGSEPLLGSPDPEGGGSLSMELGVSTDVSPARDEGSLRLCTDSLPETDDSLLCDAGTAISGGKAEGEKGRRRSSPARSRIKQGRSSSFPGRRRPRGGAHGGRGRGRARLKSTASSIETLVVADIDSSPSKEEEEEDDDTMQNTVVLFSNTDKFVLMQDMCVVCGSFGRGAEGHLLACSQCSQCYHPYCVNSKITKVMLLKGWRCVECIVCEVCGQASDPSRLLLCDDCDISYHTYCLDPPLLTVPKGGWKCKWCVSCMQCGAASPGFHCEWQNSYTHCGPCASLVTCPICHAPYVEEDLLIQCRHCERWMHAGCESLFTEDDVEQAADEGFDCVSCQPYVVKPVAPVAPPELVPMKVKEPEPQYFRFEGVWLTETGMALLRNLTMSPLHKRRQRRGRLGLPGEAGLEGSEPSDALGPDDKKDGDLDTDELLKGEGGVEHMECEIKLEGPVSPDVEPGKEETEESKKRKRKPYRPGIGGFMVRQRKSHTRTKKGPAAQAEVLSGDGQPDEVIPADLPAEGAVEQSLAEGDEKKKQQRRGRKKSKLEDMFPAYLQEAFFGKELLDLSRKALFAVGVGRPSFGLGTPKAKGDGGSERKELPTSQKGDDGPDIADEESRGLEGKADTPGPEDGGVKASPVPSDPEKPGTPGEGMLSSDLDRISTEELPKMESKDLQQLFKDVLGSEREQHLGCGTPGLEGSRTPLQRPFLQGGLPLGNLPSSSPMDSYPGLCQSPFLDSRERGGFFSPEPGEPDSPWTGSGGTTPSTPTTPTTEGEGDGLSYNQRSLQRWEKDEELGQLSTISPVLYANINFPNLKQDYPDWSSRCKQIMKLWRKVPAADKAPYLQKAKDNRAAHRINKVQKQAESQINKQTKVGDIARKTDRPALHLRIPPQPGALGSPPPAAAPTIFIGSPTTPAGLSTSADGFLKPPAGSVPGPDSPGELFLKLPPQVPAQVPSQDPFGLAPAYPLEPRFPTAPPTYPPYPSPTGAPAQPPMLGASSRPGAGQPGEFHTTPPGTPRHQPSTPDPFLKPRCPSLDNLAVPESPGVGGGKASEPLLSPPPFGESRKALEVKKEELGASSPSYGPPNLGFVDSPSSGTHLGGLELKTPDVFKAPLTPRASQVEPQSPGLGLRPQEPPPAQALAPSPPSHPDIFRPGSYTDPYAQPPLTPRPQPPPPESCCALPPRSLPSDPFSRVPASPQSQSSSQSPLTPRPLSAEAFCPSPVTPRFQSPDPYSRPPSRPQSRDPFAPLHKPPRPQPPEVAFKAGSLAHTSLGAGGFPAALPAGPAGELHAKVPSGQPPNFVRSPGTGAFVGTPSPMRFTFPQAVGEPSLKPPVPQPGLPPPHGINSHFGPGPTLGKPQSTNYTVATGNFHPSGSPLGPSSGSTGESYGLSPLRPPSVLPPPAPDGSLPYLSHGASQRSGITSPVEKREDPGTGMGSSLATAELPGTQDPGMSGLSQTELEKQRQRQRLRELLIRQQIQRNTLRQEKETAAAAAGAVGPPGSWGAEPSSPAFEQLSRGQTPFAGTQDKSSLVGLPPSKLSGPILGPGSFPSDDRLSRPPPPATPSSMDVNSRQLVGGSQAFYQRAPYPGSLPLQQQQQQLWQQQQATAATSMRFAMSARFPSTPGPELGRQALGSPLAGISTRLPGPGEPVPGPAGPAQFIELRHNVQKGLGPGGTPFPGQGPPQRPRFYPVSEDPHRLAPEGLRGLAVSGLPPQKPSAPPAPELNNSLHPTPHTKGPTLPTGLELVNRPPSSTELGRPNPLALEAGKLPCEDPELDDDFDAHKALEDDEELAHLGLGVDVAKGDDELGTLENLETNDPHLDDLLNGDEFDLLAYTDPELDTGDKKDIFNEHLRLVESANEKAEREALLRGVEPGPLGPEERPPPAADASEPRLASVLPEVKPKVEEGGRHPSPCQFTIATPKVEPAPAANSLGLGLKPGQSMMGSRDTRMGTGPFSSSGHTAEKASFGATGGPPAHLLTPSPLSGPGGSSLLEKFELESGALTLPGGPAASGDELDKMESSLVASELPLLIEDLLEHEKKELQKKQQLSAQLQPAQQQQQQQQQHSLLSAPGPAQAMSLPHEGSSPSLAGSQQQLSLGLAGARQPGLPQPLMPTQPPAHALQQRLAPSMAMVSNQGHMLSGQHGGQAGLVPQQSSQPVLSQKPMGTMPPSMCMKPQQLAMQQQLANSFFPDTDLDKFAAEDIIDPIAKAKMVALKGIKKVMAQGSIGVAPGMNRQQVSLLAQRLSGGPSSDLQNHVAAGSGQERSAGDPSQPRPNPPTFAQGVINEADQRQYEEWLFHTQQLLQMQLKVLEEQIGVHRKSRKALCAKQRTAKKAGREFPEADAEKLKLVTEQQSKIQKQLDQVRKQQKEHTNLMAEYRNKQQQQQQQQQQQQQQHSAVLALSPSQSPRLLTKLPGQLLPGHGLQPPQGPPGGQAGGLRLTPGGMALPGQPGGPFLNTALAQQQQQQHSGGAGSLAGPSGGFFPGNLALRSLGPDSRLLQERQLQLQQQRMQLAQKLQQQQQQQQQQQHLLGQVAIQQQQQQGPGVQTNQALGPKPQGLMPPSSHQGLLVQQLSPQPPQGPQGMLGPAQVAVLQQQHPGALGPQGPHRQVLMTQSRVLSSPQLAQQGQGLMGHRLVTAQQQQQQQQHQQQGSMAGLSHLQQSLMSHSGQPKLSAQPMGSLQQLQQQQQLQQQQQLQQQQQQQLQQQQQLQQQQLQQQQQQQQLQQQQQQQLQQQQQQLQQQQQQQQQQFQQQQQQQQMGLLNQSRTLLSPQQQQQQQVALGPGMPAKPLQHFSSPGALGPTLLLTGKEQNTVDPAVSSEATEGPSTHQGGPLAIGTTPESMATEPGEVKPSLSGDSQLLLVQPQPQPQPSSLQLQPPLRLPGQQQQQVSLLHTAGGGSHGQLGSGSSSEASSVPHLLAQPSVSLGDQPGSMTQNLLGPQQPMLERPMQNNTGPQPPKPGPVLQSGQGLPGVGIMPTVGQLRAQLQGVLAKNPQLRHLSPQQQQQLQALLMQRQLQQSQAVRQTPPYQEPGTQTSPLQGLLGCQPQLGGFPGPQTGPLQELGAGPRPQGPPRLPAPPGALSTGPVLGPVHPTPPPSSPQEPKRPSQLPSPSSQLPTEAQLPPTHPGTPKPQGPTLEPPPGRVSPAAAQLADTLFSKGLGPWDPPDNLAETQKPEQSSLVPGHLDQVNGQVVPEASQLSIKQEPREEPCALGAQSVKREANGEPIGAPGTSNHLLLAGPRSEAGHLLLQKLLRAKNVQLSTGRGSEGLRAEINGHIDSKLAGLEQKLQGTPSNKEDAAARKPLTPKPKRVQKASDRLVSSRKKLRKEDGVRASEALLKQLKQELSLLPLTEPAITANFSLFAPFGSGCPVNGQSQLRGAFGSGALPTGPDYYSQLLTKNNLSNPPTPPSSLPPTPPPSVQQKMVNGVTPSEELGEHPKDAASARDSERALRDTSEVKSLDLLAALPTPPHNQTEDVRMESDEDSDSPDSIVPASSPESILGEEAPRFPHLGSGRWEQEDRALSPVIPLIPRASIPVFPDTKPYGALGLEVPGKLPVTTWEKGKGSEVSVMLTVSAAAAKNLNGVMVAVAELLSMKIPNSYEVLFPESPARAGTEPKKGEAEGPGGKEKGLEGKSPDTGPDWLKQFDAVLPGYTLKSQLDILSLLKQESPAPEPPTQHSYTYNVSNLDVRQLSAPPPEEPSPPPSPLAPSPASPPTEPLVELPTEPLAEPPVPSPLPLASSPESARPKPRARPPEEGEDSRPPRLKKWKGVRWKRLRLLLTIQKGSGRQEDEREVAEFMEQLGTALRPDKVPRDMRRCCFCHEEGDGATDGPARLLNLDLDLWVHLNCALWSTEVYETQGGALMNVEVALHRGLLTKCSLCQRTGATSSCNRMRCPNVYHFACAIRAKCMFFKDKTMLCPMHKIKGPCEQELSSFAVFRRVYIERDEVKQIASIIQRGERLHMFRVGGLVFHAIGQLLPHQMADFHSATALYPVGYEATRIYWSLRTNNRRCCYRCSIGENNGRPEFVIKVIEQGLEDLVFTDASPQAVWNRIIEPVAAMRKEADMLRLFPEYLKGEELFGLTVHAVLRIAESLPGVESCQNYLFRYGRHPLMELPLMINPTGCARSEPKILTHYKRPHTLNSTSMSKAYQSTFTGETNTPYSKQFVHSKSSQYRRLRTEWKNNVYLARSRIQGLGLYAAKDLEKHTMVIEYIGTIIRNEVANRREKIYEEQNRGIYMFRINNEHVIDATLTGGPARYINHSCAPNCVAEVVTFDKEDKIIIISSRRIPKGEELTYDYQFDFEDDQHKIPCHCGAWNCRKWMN
UniProt Q02078: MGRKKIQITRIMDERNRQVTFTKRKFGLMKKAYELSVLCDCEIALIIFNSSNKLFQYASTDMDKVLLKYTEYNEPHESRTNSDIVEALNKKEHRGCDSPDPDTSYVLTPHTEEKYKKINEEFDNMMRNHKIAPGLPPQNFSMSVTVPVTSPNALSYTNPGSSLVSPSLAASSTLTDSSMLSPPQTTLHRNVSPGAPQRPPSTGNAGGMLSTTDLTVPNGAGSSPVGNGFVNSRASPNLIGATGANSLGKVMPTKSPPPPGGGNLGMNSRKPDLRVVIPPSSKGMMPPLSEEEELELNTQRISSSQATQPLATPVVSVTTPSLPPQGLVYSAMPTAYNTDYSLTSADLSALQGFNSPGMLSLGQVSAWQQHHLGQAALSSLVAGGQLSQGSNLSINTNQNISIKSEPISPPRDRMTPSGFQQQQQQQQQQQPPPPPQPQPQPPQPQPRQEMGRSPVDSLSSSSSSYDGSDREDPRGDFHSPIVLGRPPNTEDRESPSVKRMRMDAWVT

Target: histone-lysine N-methyltransferase 2D (KMT2D) (human (endogenous in SCC25)) (UniProt O14686)
Experiment: co-IP; 5 ug anti-KMT2D antibody (anti-IgG as control) added to SCC25 cell samples, Universal Magnetic co-IP kit (Active Motif 54002); MEF2A detected by immunoblotting

MEF2A (from UniProt Q02078 1-507)
binding: binds
